# Where “and” joins values, the source holds several entries; their conditions need not be identical. Identical values can stand only once. Inconclusive means that the source gave no clear call. Such entries were picked first, then a sample of the others. For some assays here: A potency beside an inconclusive call is a rough fit, not a confirmed value. Calls of active or inactive are those of the source. Calls come from the whole dose curve; as a rule, active = well fitted curve in the direction sought with a large enough effect; inconclusive = small, poorly fitted or top-dose-only effect, or another doubt; inactive = no such curve, though single readings can be large; an effect the other way counts as inactive or inconclusive.
# What was measured:
# [1] = Identifying Small Molecule Inhibitors of Pancreatic Cancer Stem Cells (A2780, Spheroid) (AID 1259357); details: Potency: A2780 spheroid viability; viability (percent of control): at 46.1 µM (top of the series);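 note: compound exposure lasted 48 h before the ATP luminescence read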; note: potency is the fitted concentration of half-maximal effect
# How it was run: (§1)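 Luminescent ATP readout (CellTiter-Glo) quantifies surviving cells after a 48 h drug incubation. Normalization uses DMSO wells as no inhibition and media-only wells as full inhibition; bortezomib served as positive control.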
# [2] = Identifying Small Molecule Inhibitors of Pancreatic Cancer Stem Cells (SN12C, Spheroid) (AID 1259360); details: Potency: SN12C spheroid viability; note: potency is the fitted concentration of half-maximal effect
# How it was run: as §1
# [3] = Identifying Small Molecule Inhibitors of Pancreatic Cancer Stem Cells (A278, Adherent) (AID 1259361); note: nearly all actives have a fitted effect of over 35% in size
# How it was run: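 After a 4 h attachment period, compounds were pinned into wells and cultures held 48 h under standard incubator conditions. Viability was then measured as CellTiter-Glo luminescence following 10 min at room temperature.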
# [4] = Identifying Small Molecule Inhibitors of Pancreatic Cancer Stem Cells (Panc1, Adherent) (AID 1259362); details: Potency: viability unless noted; viability, % of control: at 46.1 µM (top of the series) unless noted; note: potency is the fitted concentration of half-maximal effect
# How it was run: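 Cytotoxicity read by CellTiter-Glo luminescence after 48 h compound exposure at 37C; percent activity scaled between DMSO-treated cells and cell-free wells. Spheroid formats used cells pre-formed 14 days in stem cell media on hydrogel.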
# [5] = P-glycoprotein substrates identified in KB-8-5-11 adenocarcinoma cell line, qHTS therapeutic library screen (AID 1346987); note: potency is the fitted concentration of half-maximal effect; nearly all actives have a fitted effect of over 65% in size
# How it was run: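 Compounds are pinned in dose-response onto KB-8-5-11 cells (500 cells/well, colchicine-free medium) and left 72 h at 37 degree C. CellTiter-Glo luminescence then yields AC50 values.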
# [6] = qHTS of pediatric cancer cell lines to identify multiple opportunities for drug repurposing: Primary screen for BT-12 cells (AID 1347101); note: potency is the fitted concentration of half-maximal effect; nearly all actives have a fitted effect of over 25% in size
# How it was run: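 Cells (500-1,000/well) rested 5 h, then received compounds for 48 h; metabolically active cells were measured by CellTiter-Glo luminescence. Final concentrations spanned up to 46 µM (MIPE, 11-point) or 0.59 nM-46 µM (NPC, 8-point) in primary screens, 11-point in follow-ups.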
# [7] = qHTS of pediatric cancer cell lines to identify multiple opportunities for drug repurposing: Primary screen for Rh18 cells (AID 1347102); note: potency is the fitted concentration of half-maximal effect; nearly all actives have a fitted effect of over 65% in size
# How it was run: (§2)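 Cells (500-1,000/well) in growth media were settled 5 h at 37 degrees C, then given compounds for 48 h. Viability was read as CellTiter-Glo luminescence. Primary runs used MIPE at 11 points (0.78 nM-46 µM) and NPC at 8 points (0.59 nM-46 µM); follow-ups used 11 points.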
# [8] = qHTS of pediatric cancer cell lines to identify multiple opportunities for drug repurposing: Primary screen for Rh30 cells (AID 1347107); note: potency is the fitted concentration of half-maximal effect; nearly all actives have a fitted effect of over 75% in size
# How it was run: as §2
# HEK293 = experiment: Cytotoxic Profiling of Annotated Libraries Using Quantitative High-Throughput Screening (AID 1296008); details: Five cell lines viability, CellTiter-Glo ATP luminescence, 48-72 h; max response: stronger effect = lower value; note: potency is the fitted concentration of half-maximal effect; nearly all actives have a fitted effect of over 60% in size
# How it was run: (§3)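 Compounds were pin-transferred onto cells and incubated 48 or 72 hr at 37 degree Celsius, 95% humidity. CellTiter-Glo was added, plates sat 10 min at room temperature, then ATP-coupled luminescence was imaged as the viability read-out.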
# [9] = Cell Proliferation Assay against the TMD8 Cell Line (Caspase readout at 16 hrs) (AID 651712); details: TMD8 lymphoma cells, caspase activation luminescence; caspase activation: at 46.1 µM (top of the series); note: potency is the fitted concentration of half-maximal effect;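 for caspase activation: 0% = DMSO and 100% = 9.2 µM bortezomib caspase activation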
# How it was run: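 16 h, 37 °C, TMD8 (500 cells/well), RPMI/5% FBS no phenol red; Caspase-Glo 3/7, 15 min RT, luminescence; %act: DMSO 0, bortezomib 9.2 uM final 100.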
# [10] = Cell Proliferation Assay against the TMD8 Cell Line (Caspase readout at 8 hrs) (AID 651713); details: TMD8 lymphoma cells, caspase activation luminescence; caspase activation: at 46.1 µM (top of the series); note: potency is the fitted concentration of half-maximal effect
# How it was run: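 Apoptosis read-out: Caspase-Glo luminescence after 8 h compound exposure of TMD8 lymphoma cells at 37C, 5% CO2. Signals were normalized as percent activity between DMSO and bortezomib (9.2 uM final) controls.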
# [11] = Quantitative High-Throughput drug screen in 47 multiple myeloma cell lines against the NCATS MIPE library collection: JIM1_ECACC cell viability assay (AID 1918964; note: potency is the fitted concentration of half-maximal effect)
# How it was run: (§4)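 Relative luminescence from CellTiter-Glo served as the viability signal, referenced to DMSO-treated (100%) and cell-free medium (0%) controls. Treatment lasted 48 hours at 37C with 500 cells per well.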
# [12] = Quantitative High-Throughput drug screen in 47 multiple myeloma cell lines against the NCATS MIPE library collection: KMS21BM_JCRB cell viability assay (AID 1918974); details: ATP luminescence, 48 h; viability: at 45.8 µM (top of the series); note: potency is the fitted concentration of half-maximal effect
# How it was run: as §4
# [13] = Quantitative High-Throughput drug screen in 47 multiple myeloma cell lines against the NCATS MIPE library collection: MOLP8_DSMZ cell viability assay (AID 1918977); details: MOLP8 myeloma viability, CellTiter-Glo ATP luminescence, 48 h; viability (% of control): at 45.8 µM (top of the series); note: potency is the fitted concentration of half-maximal effect; nearly all actives have a fitted effect of over 45% in size
# How it was run: (§5)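 qHTS format: cells plated (500/well), pin-dosed with MIPE 4.0 compounds, kept 48 h at 37 °C. Readout was CellTiter-Glo luminescence, median RLU.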
# [14] = Quantitative High-Throughput drug screen in 47 multiple myeloma cell lines against the NCATS MIPE library collection: LP1_DSMZ cell viability assay (AID 1918982); note: potency is the fitted concentration of half-maximal effect; nearly all actives have a fitted effect of over 35% in size
# How it was run: as §5
# [15] = Quantitative High-Throughput drug screen in 47 multiple myeloma cell lines against the NCATS MIPE library collection: L363_DSMZ cell viability assay (AID 1918984); details: L363 myeloma viability, CellTiter-Glo ATP luminescence, 48 h; viability (% of control): at 45.8 µM (top of the series); note: nearly all actives have a fitted effect of over 40% in size; note: potency is the fitted concentration of half-maximal effect
# How it was run: as §5
# CRL-7250 = normal cell line; experiment: Cytotoxic Profiling of Annotated Libraries Using Quantitative High-Throughput Screening (AID 1296008); details: Five cell lines viability, CellTiter-Glo ATP luminescence, 48-72 h; max response: stronger effect = lower value; note: potency is the fitted concentration of half-maximal effect; nearly all actives have a fitted effect of over 60% in size
# How it was run: as §3
# [16] = Identifying Small Molecule Inhibitors of Pancreatic Cancer Stem Cells (Panc1, Spheroid) (AID 1259359); details: Panc1 spheroid cancer stem cell viability; viability, % of control: at 46.1 µM (top of the series) unless noted;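 note: potency is the fitted concentration of half-maximal effect; compound exposure lasted 48 h before reading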
# How it was run: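 Adherent (2D) versus sphere (3D) formats; spheres generated 14 d in SCM beforehand. Compound transferred by pin tool after 4 h, 48 h incubation, CellTiter-Glo endpoint.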
# [17] = qHTS of pediatric cancer cell lines to identify multiple opportunities for drug repurposing: Primary screen for Rh41 cells (AID 1347108); note: potency is the fitted concentration of half-maximal effect; nearly all actives have a fitted effect of over 70% in size
# How it was run: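 Phenotypic viability qHTS, 48 h compound exposure, CellTiter-Glo luminescence read-out; multi-concentration dosing so that potency and efficacy derive directly from the primary screen's curves.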
# [18] = Quantitative High-Throughput drug screen in 47 multiple myeloma cell lines against the NCATS MIPE library collection: KMS20_JCRB cell viability assay (AID 1918973); details: CellTiter-Glo ATP, 48 h; viability (% of DMSO): at 45.8 µM (top of the series); note: potency is the fitted concentration of half-maximal effect; nearly all actives have a fitted effect of over 45% in size
# How it was run: as §4
smiles,measurement,setting,value
C=CC(=O)N1CCC[C@@H](n2nc(-c3ccc(Oc4ccccc4)cc3)c3c(N)ncnc32)C1,Potency,[1],inactive
same,Potency,[2],"inconclusive: 27 µM [cytotoxic, partial curve]"
same,IC50 (viability decrease),[3],"inconclusive: 42.9 µM [cytotoxic, single point]"
same,Potency,[4],"inconclusive: 67.9 µM [cytotoxic, single point]"
same,Potency,[5],"inconclusive: 18.7 µM [inhibitor, partial curve] and inconclusive: 20.6 µM [inhibitor, single point]"
same,Potency,[6],"inconclusive: 43.2 µM [cytotoxic, single point]"
same,Potency,[7],active: 18.7 µM
same,Potency,[8],active: 11.8 µM
same,Potency,HEK293,"inconclusive: 29.6 µM [inhibitor, single point]"
O=C(NCCCNc1nc(Nc2cccc(NC(=O)N3CCCC3)c2)ncc1I)c1cccs1,Potency,[9],active: 13.2 µM and active: 5.9 µM
same,Potency,[10],active: 26.4 µM and active: 29.6 µM
same,Potency,[1],"inconclusive: 33.2 µM [cytotoxic, single point] and inconclusive: 37.2 µM [cytotoxic, single point]"
same,Potency,[2],"inconclusive: 37.2 µM [cytotoxic, single point] and inconclusive: 33.2 µM [cytotoxic, single point]"
same,IC50 (viability decrease),[3],active: 6.62 µM and active: 14.8 µM
same,Potency,[4],active: 11.8 µM and active: 16.6 µM
same,Potency,[5],"inconclusive: 29.1 µM [inhibitor, single point]"
same,Potency,[6],active: 24.3 µM
same,Potency,[7],active: 14.8 µM
same,Potency,[8],"inconclusive: 2.35 µM [cytotoxic, full curve]"
same,Potency,[11],"inconclusive: 0.0013 µM [cytotoxic, full curve, poor fit]"
same,Potency,[12],inactive
same,Potency,[13],active: 5.26 µM
same,Potency,[14],active: 18.7 µM
same,Potency,[15],"inconclusive: 1.05 µM [cytotoxic, full curve, poor fit]"
same,Potency,CRL-7250,active: 5.9 µM
CC(C)c1ccc(Cn2ccc3c4c(N)nc(NC5CC5)nc4ccc32)cc1,Potency,[9],"inconclusive: 11.8 µM [activator, partial curve]"
same,Potency,[1],active: 14.8 µM
same,Potency,[16],active: 5.26 µM
same,Potency,[4],active: 0.743 µM
same,Potency,[5],active: 1.18 µM
same,Potency,[6],active: 4.32 µM
same,Potency,[8],active: 18.7 µM
same,Potency,[17],active: 3.72 µM
same,Potency,[11],active: 1.87 µM
same,Potency,[18],active: 3.72 µM
same,Potency,[12],active: 1.32 µM
same,Potency,[14],active: 4.69 µM
same,Potency,[15],active: 0.469 µM
same,Potency,CRL-7250,active: 3.32 µM
NC(=O)c1c(OCc2c(F)cc(Br)cc2F)nsc1NC(=O)NCCCCN1CCCC1,Potency,[9],inactive
same,Potency,[10],"inconclusive: 33.2 µM [activator, single point]"
same,Potency,[1],inconclusive: 0.001 µM
same,Potency,[2],"inconclusive: 29.6 µM [cytotoxic, partial curve, poor fit]"
same,IC50 (viability decrease),[3],"inconclusive: 14.8 µM [cytotoxic, partial curve]"
same,Potency,[4],"inconclusive: 18.7 µM [cytotoxic, partial curve]"
same,Potency,[5],"inconclusive: 26.4 µM [inhibitor, single point] and active: 18.4 µM"
same,Potency,[7],"inconclusive: 6.62 µM [cytotoxic, single point]"
same,Potency,[8],active: 20.9 µM
same,Potency,[11],"inconclusive: 0.0148 µM [cytotoxic, full curve, poor fit]"
same,Potency,[18],active: 7.43 µM
same,Potency,[12],"inconclusive: 0.0148 µM [cytotoxic, full curve, poor fit]"
same,Potency,[13],active: 26.4 µM
same,Potency,[14],"inconclusive: 33.2 µM [cytotoxic, single point]"
same,Potency,[15],inactive
COc1cc(C(C)C)c2c(c1)S(=O)(=O)N(COc1cc(=O)n3cccc(OCCN4CCCCC4)c3n1)C2=O,Potency,[9],inactive
same,Potency,[10],"inconclusive: 33.2 µM [activator, single point]"
same,viability (percent of control),[1],inconclusive: 97.4%
same,Potency,[16],"inconclusive: 16.6 µM [cytotoxic, partial curve, poor fit]"
same,IC50 (viability decrease),[3],"inconclusive: 33.2 µM [cytotoxic, single point]"
same,Potency,[7],"inconclusive: 37.2 µM [cytotoxic, single point]"
same,Potency,[17],"inconclusive: 8.33 µM [cytotoxic, partial curve]"
same,Potency,[11],active: 18.7 µM
same,Potency,[12],active: 18.7 µM
same,Potency,[13],"inconclusive: 29.6 µM [cytotoxic, single point]"
same,Potency,[14],"inconclusive: 33.2 µM [cytotoxic, single point]"
